In patent publication US20250057969A1 (priority 2023, published 2025):

Assay: general procedure: solution-phase peptide synthesis; HATU/DIPEA; HBTU/DIEA
Conditions: for step yield: late stage modification step; for conjugation yield: conjugation step

Substance | step yield | conjugation yield
(2S,3S,4S,5R,6S)-6-(2-((3-(2-((3-((2-bromoacetamido)methyl)-1-(2,5,8,11,14,17,20,23,26,29,32,35-dodecaoxaoctatriacontan-38-oyl)azetidin-3-yl)oxy)acetamido)propanamido)methyl)-4-((5S,8S,11S,12R)-11-((S)-sec-butyl)-12-(2-((S)-2-((1R,2R)-3-(((1S,2R)-1-hydroxy-1-phenylpropan-2-yl)amino)-1-methoxy-2-methyl-3-oxopropyl)pyrrolidin-1-yl)-2-oxoethyl)-5,8-diisopropyl-4,10-dimethyl-3,6,9-trioxo-2,13-dioxa-4,7,10-triazatetradecyl)phenoxy)-3,4,5-trihydroxytetrahydro-2H-pyran-2-carboxylic acid | 80% | 
(2S,3S,4S,5R,6S)-6-(4-((5S,8S,11S,12R)-11-((S)-sec-butyl)-12-(2-((S)-2-((1R,2R)-3-(((1S,2R)-1-hydroxy-1-phenylpropan-2-yl)amino)-1-methoxy-2-methyl-3-oxopropyl)pyrrolidin-1-yl)-2-oxoethyl)-5,8-diisopropyl-4,10-dimethyl-3,6,9-trioxo-2,13-dioxa-4,7,10-triazatetradecyl)-2-((S)-44-(3-(2,5-dioxo-2,5-dihydro-1H-pyrrol-1-yl)propanamido)-38,45-dioxo-2,5,8,11,14,17,20,23,26,29,32,35-dodecaoxa-39,46-diazanonatetracontan-49-amido)phenoxy)-3,4,5-trihydroxytetrahydro-2H-pyran-2-carboxylic acid | 11% | 
(2S,3S,4S,5R,6S)-6-(4-((5S,8S,11S,12R)-11-((S)-sec-butyl)-12-(2-((S)-2-((1R,2R)-3-(((1S,2R)-1-hydroxy-1-phenylpropan-2-yl)amino)-1-methoxy-2-methyl-3-oxopropyl)pyrrolidin-1-yl)-2-oxoethyl)-5,8-diisopropyl-4,10-dimethyl-3,6,9-trioxo-2,13-dioxa-4,7,10-triazatetradecyl)-2-((S)-44-(3-(2,5-dioxo-2,5-dihydro-1H-pyrrol-1-yl)propanamido)-38,45,49-trioxo-2,5,8,11,14,17,20,23,26,29,32,35-dodecaoxa-39,46,50-triazahenpentacontan-51-yl)phenoxy)-3,4,5-trihydroxytetrahydro-2H-pyran-2-carboxylic acid | 25% | 
(2S,3S,4S,5R,6S)-6-(4-((5S,8S,11S,12R)-11-((S)-sec-butyl)-12-(2-((S)-2-((1R,2R)-3-(((1S,2R)-1-hydroxy-1-phenylpropan-2-yl)amino)-1-methoxy-2-methyl-3-oxopropyl)pyrrolidin-1-yl)-2-oxoethyl)-5,8-diisopropyl-4,10-dimethyl-3,6,9-trioxo-2,13-dioxa-4,7,10-triazatetradecyl)-2-(3-(2-((3-((3-(2,5-dioxo-2,5-dihydro-1H-pyrrol-1-yl)propanamido)methyl)-1-(2,5,8,11,14,17,20,23,26,29,32,35-dodecaoxaoctatriacontan-38-oyl)azetidin-3-yl)oxy)acetamido)propanamido)phenoxy)-3,4,5-trihydroxytetrahydro-2H-pyran-2-carboxylic acid |  | 50.5%
(2S,3S,4S,5R,6S)-6-(4-((5S,8S,11S,12R)-11-((S)-sec-butyl)-12-(2-((S)-2-((1R,2R)-3-(((1S,2R)-1-hydroxy-1-phenylpropan-2-yl)amino)-1-methoxy-2-methyl-3-oxopropyl)pyrrolidin-1-yl)-2-oxoethyl)-5,8-diisopropyl-4,10-dimethyl-3,6,9-trioxo-2,13-dioxa-4,7,10-triazatetradecyl)-2-((2-((3-((3-(2,5-dioxo-2,5-dihydro-1H-pyrrol-1-yl)propanamido)methyl)-1-(2,5,8,11,14,17,20,23,26,29,32,35-dodecaoxaoctatriacontan-38-oyl)azetidin-3-yl)oxy)acetamido)methyl)phenoxy)-3,4,5-trihydroxytetrahydro-2H-pyran-2-carboxylic acid | 65% | 
(2S,3S,4S,5R,6S)-6-(4-((5S,8S,11S,12R)-11-((S)-sec-butyl)-12-(2-((S)-2-((1R,2R)-3-(((1S,2R)-1-hydroxy-1-phenylpropan-2-yl)amino)-1-methoxy-2-methyl-3-oxopropyl)pyrrolidin-1-yl)-2-oxoethyl)-5,8-diisopropyl-4,10-dimethyl-3,6,9-trioxo-2,13-dioxa-4,7,10-triazatetradecyl)-2-((3-(2-((3-((3-(2,5-dioxo-2,5-dihydro-1H-pyrrol-1-yl)propanamido)methyl)-1-(2,5,8,11,14,17,20,23,26,29,32,35-dodecaoxaoctatriacontan-38-oyl)azetidin-3-yl)oxy)acetamido)propanamido)methyl)phenoxy)-3,4,5-trihydroxytetrahydro-2H-pyran-2-carboxylic acid | 35.7% | 20%
3-((3-(2-((3-((3-(2,5-dioxo-2,5-dihydro-1H-pyrrol-1-yl)propanamido)methyl)-1-(2,5,8,11,14,17,20,23,26,29,32,35-dodecaoxaoctatriacontan-38-oyl)azetidin-3-yl)oxy)acetamido)propanamido)methyl)-4-(((2S,3R,4S,5R,6R)-3,4,5-trihydroxy-6-(hydroxymethyl)tetrahydro-2H-pyran-2-yl)oxy)benzyl ((S)-1-(((S)-1-(((3R,4S,5S)-1-((S)-2-((1R,2R)-3-(((1S,2R)-1-hydroxy-1-phenylpropan-2-yl)amino)-1-methoxy-2-methyl-3-oxopropyl)pyrrolidin-1-yl)-3-methoxy-5-methyl-1-oxoheptan-4-yl)(methyl)amino)-3-methyl-1-oxobutan-2-yl)amino)-3-methyl-1-oxobutan-2-yl)(methyl)carbamate |  | 30%
